Results are given in words; binding and its absence hold for the method and conditions named. In cells and extracts the contact can be indirect. Some entries that bind do so weakly or less than the wild type.

By UniProt entry, the sequences of proteins in these tests, tags left out.
UniProt Q16539: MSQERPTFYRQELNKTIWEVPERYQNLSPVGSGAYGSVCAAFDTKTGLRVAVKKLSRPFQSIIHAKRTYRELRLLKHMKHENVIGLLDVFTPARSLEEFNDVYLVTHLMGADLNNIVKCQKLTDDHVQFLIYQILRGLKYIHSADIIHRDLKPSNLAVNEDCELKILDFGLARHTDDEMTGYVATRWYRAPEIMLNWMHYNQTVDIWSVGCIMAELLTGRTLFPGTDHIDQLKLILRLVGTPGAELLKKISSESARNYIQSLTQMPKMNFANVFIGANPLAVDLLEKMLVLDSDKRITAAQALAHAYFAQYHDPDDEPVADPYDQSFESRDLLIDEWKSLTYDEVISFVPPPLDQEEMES
UniProt Q99873: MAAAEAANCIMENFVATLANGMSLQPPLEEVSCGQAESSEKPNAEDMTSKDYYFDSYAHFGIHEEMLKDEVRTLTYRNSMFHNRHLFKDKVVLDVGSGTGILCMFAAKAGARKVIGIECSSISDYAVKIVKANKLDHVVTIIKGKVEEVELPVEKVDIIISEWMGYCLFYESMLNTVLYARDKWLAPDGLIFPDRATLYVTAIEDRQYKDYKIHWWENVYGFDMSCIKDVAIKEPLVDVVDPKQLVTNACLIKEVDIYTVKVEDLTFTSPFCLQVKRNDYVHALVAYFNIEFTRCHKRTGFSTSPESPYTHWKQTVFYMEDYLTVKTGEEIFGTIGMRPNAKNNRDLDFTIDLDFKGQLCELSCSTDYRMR

In experiment [1] the target is p38α MAPK (human (endogenous in K562)) (UniProt Q16539). As to the kind of experiment: co-IP; endogenous proteins from K562 cell lysates; immunoprecipitation with an anti-p38α specific antibody or an anti-PRMT1 specific antibody, blot for the other protein; mouse IgG as negative control.
Experiment [2] addresses Protein arginine methyltransferase 1 (human (endogenous in K562)) (UniProt Q99873). Described as above.

On to “Protein arginine methyltransferase 1 (from UniProt Q99873 1-371) (enzyme)”, for which the binding entry in experiment [1] is “binds”.

On to “p38α MAPK (from UniProt Q16539 1-360) (enzyme)”, for which the binding entry in experiment [2] is on record as “binds”.

(Values after article PMC3590204.)
